PubChem BioAssay AID720505 – Drosophila RNAi Screening Center – 2013

Purpose: 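Knock-downs that reduce calcium influx once internal stores are emptied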 (primary screen)
Cell system: Drosophila S2R+ cells
Knock-down reagent: long dsRNA against Drosophila genes
Treatment: thapsigargin (2 µM) in calcium-free buffer to empty internal stores, then 2 mM calcium added back
Read-out: 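Fluo-4 signal in 384-well plates read on a FLIPR after thapsigargin (2 µM, calcium-free) store depletion and 2 mM calcium add-back; unnormalised mean endpoint per well; screen run twice, selected wells retested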
Scale: calcium signal and retest calcium signal: higher = more calcium entry after store depletion
Active means: 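Knock-downs counted as hits when calcium entry dropped relative to STIM1 positive and Rho1 negative controls present on each plate; roughly 1500 genes called, with reductions of differing size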
Meaning of the calls: active = called as lowering calcium entry; inactive = not called
The screen tested about 20,000 reagents; shown is a random part of those that have a named target and a result. In the full data, about 2,100 (10%) are marked active. 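Raw plate signals without normalisation; calls rest on control-based scores that were not deposited; replicate 2 separates called from uncalled poorly.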 A plus sign joins genes that one reagent is predicted to hit. Reagent sequences are not shown. Not given: the amount of reagent, the time to read-out.

target gene | DRSC id | calcium signal, replicate 1 | calcium signal, replicate 2 | retest calcium signal, replicate 1 | retest calcium signal, replicate 2 | outcome
Or83c | DRSC12359 | 86.8 | 150 | – | – | inactive
Jon65Ai | DRSC09731 | 71.2 | 48.9 | – | – | inactive
uzip | DRSC04722 | 127 | 84.1 | – | – | inactive
CG6094 | DRSC02927 | 87.4 | 110 | 103 | 98.2 | inactive
CG6094 | DRSC22705 | 111 | 177 | – | – | inactive
Lgr1 | DRSC16675 | 59.3 | 83.1 | – | – | active
CG14285 | DRSC14766 | 157 | 129 | – | – | inactive
CG13021 | DRSC17893 | 104 | 115 | – | – | inactive
CG15185 | DRSC12565 | 137 | 159 | – | – | inactive
Or24a | DRSC00768 | 87.8 | 107 | – | – | inactive
Ack | DRSC08135 | 92.5 | 100 | – | – | inactive
Cdk4 | DRSC07358 | 138 | 138 | – | – | inactive
CG17202 | DRSC15194 | 136 | 115 | – | – | inactive
CG17202 | DRSC23073 | 106 | 96.5 | – | – | inactive
CR17567 (retired record) | DRSC02627 | 72 | 167 | – | – | inactive
CR17567 (retired record) | DRSC22537 | 109 | 150 | – | – | inactive
ninaE | DRSC17014 | 160 | 178 | – | – | inactive
IP3K1 | DRSC02734 | 124 | 102 | – | – | inactive
nmdyn-D7 | DRSC17016 | 144 | 93 | – | – | inactive
Mal-A1 | DRSC07461 | 112 | 123 | – | – | inactive
TTLL1A | DRSC20121 | 105 | 99.2 | – | – | inactive
MME1 | DRSC02714 | 97.8 | 240 | – | – | inactive
RasGAP1 | DRSC11172 | 104 | 128 | – | – | inactive
CG15107 | DRSC06534 | 130 | 158 | – | – | inactive
CG12729 | DRSC17884 | 229 | 106 | – | – | inactive
Loxl2 | DRSC04469 | 153 | 118 | – | – | inactive
BBS8 | DRSC00360 | 112 | 97.2 | – | – | inactive
CG32650 | DRSC19899 | 113 | 133 | – | – | inactive
Dop1R2 | DRSC15379 | 157 | 111 | – | – | inactive
CG17350 | DRSC02611 | 180 | 102 | – | – | inactive
ND-B15 | DRSC06199 | 131 | 182 | – | – | inactive
CG31683 + CG18858 | DRSC02703 | 211 | 85.5 | – | – | inactive
tn (retired record) | DRSC05768 | 84.7 | 103 | – | – | inactive
tn (retired record) | DRSC06532 | 129 | 158 | – | – | inactive
CG17575 | DRSC06682 | 124 | 190 | – | – | inactive
CG18528 | DRSC15340 | 182 | 169 | – | – | inactive
obst-I | DRSC08339 | 74.2 | 159 | – | – | active
CG44838 | DRSC10330 | 99.4 | 97.2 | – | – | inactive
CG44838 | DRSC10371 | 95.6 | 103 | – | – | inactive
TwdlO | DRSC16043 | 66.7 | 87 | – | – | active
Ac76E | DRSC09662 | 94.2 | 90.5 | – | – | inactive
Gat | DRSC17144 | 122 | 151 | – | – | inactive
p38b | DRSC03586 | 144 | 132 | – | – | inactive
Rlip | DRSC16828 | 220 | 173 | – | – | inactive
ato | DRSC16904 | 63.7 | 142 | – | – | active
Rac1 | DRSC08688 | 82.4 | 87.4 | – | – | inactive
halo | DRSC00705 | 138 | 147 | – | – | inactive
CG31908 | DRSC21864 | 66.2 | 156 | – | – | inactive
CG31908 | DRSC23243 | 99.4 | 98.8 | – | – | inactive
tinc | DRSC14798 | 123 | 120 | – | – | inactive
tinc | DRSC14799 | 104 | 125 | – | – | inactive
tinc | DRSC16308 | 148 | 78 | – | – | inactive
tinc | DRSC16309 | 118 | 75.7 | – | – | inactive
mago | DRSC04703 | 203 | 96.7 | – | – | inactive
Prp6 | DRSC10724 | 131 | 120 | 131 | 94.3 | inactive
Prp6 | DRSC21773 | 146 | 132 | – | – | inactive
CG6304 | DRSC02948 | 94.1 | 95.8 | – | – | inactive
CG1137 | DRSC12529 | 123 | 172 | – | – | inactive
GILT1 | DRSC16565 | 107 | 166 | – | – | inactive
CG9953 | DRSC11106 | 76.3 | 84.5 | – | – | inactive
Ag5r | DRSC19327 | 140 | 97.8 | – | – | inactive
mahj | DRSC04053 | 179 | 79.6 | – | – | inactive
Vha68-1 | DRSC03470 | 93 | 101 | – | – | inactive
Nrk | DRSC07480 | 144 | 113 | – | – | inactive
lncRNA:CR32657 | DRSC19403 | 120 | 95.7 | – | – | inactive
ATPsyngamma | DRSC14094 | 166 | 146 | – | – | inactive
Vps13 | DRSC06817 | 149 | 131 | – | – | inactive
Ote | DRSC07498 | 140 | 99.7 | – | – | inactive
CG16743 | DRSC02514 | 185 | 207 | – | – | inactive
Brr2 | DRSC10559 | 93 | 69.3 | – | – | inactive
rudhira | DRSC19821 | 116 | 161 | – | – | inactive
rudhira | DRSC22111 | 85.4 | 235 | – | – | inactive
rudhira | DRSC23144 | 138 | 163 | – | – | inactive
CG12438 | DRSC02167 | 119 | 84.2 | – | – | inactive
AMPdeam | DRSC18996 | 80.7 | 102 | – | – | inactive
AMPdeam | DRSC19366 | 76.4 | 82.5 | – | – | inactive
AMPdeam | DRSC19368 | 71.2 | 79.8 | – | – | active
AMPdeam | DRSC19727 | 70.8 | 67.5 | – | – | active
Mkp + CG34140 | DRSC08585 | 143 | 110 | – | – | inactive
CG40486 | DRSC20619 | 178 | 163 | – | – | inactive
CG15459 | DRSC20530 | 108 | 87.5 | 6483 | 182 | inactive
CG15459 | DRSC21383 | 151 | 86.5 | – | – | inactive
SPoCk | DRSC11675 | 102 | 165 | – | – | inactive
SPoCk | DRSC11706 | 69 | 113 | – | – | active
SPoCk | DRSC11844 | 103 | 193 | – | – | inactive
SPoCk | DRSC11845 | 106 | 180 | – | – | inactive
ZnT77C | DRSC11766 | 116 | 131 | – | – | inactive
ZnT77C | DRSC11767 | 113 | 204 | – | – | inactive
CG3902 | DRSC10387 | 88.3 | 129 | – | – | inactive
CG31788 | DRSC01630 | 204 | 79.4 | – | – | inactive
CG15705 | DRSC06576 | 148 | 164 | – | – | inactive
CG1979 | DRSC12495 | 98.8 | 117 | – | – | inactive
CG5131 | DRSC02817 | 116 | 94.4 | – | – | inactive
bwa | DRSC01749 | 143 | 7107 | – | – | inactive
bwa | DRSC02310 | 104 | 94.3 | – | – | inactive
mbl | DRSC05657 | 154 | 146 | 10664 | 112 | inactive
mbl | DRSC06449 | 120 | 123 | – | – | inactive
mbl | DRSC07651 | 228 | 185 | – | – | inactive
mbl | DRSC23188 | 115 | 126 | – | – | inactive
wdp | DRSC04367 | 120 | 136 | – | – | inactive
Ras64B | DRSC08689 | 80.5 | 91.4 | – | – | inactive
CG33506 | DRSC05981 | 103 | 102 | – | – | inactive
Hsf | DRSC07443 | 141 | 84.5 | – | – | inactive
RpL6 | DRSC14323 | 94.5 | 78.7 | – | – | inactive
RpL6 | DRSC22384 | 70.1 | 184 | – | – | inactive
sesB | DRSC20371 | 129 | 85.4 | – | – | inactive

An excerpt taken from the entries so far:
target gene | DRSC id | calcium signal, replicate 1 | calcium signal, replicate 2 | retest calcium signal, replicate 1 | retest calcium signal, replicate 2 | outcome
CR17567 (retired record) | DRSC02627 | 72 | 167 | – | – | inactive
CR17567 (retired record) | DRSC22537 | 109 | 150 | – | – | inactive
ninaE | DRSC17014 | 160 | 178 | – | – | inactive
IP3K1 | DRSC02734 | 124 | 102 | – | – | inactive
nmdyn-D7 | DRSC17016 | 144 | 93 | – | – | inactive
